Results as given in patent US20230190717A1, “P38 GAMMA INHIBITORS AND METHOD OF USE THEREOF” (City of Hope, priority 2017, published 2023).

System: H9 cells
Test: NanoString RNA analysis of H9 cells, F7 versus p38γ shRNA knockdown
Format: cell-based
Conditions: F7 500 nM, 24 h

## Cc1ccc([N+](=O)[O-])cc1S(=O)(=O)N(C)/N=C/c1cnc2ccc(Br)cn12 [Compound F7]
PanCancer Immune panel
  correlation coefficient of gene expression alterations, knockdown of p38γ versus F7 treatment: 0.6
PanCancer Pathway panel
  correlation coefficient of gene expression alterations, knockdown of p38γ versus F7 treatment: 0.7
Two merged panels, FIG. 15A
  correlation coefficient of gene expression alterations, knockdown of p38γ versus F7 treatment: 0.628
